No constants are given. Whether binding was seen depends on the method and setting. Some results given as binding are weak or reduced against the parent protein; the word gives no strength.

Chains of the proteins cited; added tags and fusions are not shown. Lines headed by an entry give the natural chain unless they say otherwise; changes in a name come on top. Residues count along the entry.
CK1δ kinase domain (P48730, residues 1-294): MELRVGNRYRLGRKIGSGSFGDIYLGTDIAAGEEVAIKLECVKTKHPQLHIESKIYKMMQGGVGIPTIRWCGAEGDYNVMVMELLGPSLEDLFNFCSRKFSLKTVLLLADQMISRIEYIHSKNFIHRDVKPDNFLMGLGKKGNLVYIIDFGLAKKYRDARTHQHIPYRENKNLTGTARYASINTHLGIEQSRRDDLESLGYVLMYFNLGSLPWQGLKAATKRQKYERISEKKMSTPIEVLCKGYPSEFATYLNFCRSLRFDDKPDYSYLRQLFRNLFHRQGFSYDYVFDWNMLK
C-terminal domain of CK1δ (R324 to R415), non-phosphorylated (P48730, residues 324-415): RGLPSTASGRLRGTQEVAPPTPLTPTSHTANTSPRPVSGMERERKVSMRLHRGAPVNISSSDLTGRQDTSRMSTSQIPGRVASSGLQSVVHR

The record followed here is article PMC10542812.

For the experiment, the target named is C-terminal domain of CK1δ (R324 to R415), non-phosphorylated (human) (UniProt P48730). Briefly: NMR titration; unlabelled kinase domain titrated to the 15N-labelled C-terminal domain; [15N,1H]-BEST-TROSY-HSQC; 50 mM Bis-Tris pH 6.5, 50 mM NaCl, 10 mM MgCl2, 0.5 mM TCEP; 298 K; raising the salt from 50 to 150 mM had almost no effect; both purified.

As for “CK1δ kinase domain (from UniProt P48730 1-294) (domain or fragment)”, the binding result was “binds weakly”.
